We go through 1 substance from doi:10.1101/2023.02.23.529712.

Chains of the proteins cited; added tags and fusions are not shown. Lines headed by an entry give the natural chain unless they say otherwise; changes in a name come on top.
UniProt P29066: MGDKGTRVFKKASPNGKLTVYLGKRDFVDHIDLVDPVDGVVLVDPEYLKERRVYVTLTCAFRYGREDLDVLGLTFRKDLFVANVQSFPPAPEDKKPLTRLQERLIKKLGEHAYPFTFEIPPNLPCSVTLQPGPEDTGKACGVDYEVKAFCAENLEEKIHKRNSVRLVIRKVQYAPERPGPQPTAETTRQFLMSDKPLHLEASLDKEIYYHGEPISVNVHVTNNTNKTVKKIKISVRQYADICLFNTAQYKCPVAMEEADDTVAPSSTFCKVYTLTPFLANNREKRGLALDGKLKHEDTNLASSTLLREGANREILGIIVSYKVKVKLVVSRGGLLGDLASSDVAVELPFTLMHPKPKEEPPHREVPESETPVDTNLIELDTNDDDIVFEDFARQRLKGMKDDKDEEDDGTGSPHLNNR
UniProt Q92847: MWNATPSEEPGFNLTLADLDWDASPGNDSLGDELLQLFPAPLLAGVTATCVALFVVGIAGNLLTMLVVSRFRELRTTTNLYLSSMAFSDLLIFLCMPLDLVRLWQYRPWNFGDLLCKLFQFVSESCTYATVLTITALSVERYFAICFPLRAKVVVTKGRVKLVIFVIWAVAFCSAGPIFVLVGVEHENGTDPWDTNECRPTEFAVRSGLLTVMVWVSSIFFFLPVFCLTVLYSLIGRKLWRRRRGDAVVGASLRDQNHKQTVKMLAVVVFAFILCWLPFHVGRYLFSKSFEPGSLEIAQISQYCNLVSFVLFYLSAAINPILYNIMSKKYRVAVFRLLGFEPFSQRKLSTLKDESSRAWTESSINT

These are yes or no findings as the source states them, for the method shown. Binding calls can cover weak binding; strength is not graded here.

In the test the target is recombinant rat arrestin-2 (rat) (UniProt P29066). As to the kind of experiment: NMR titration.

For “phosphomimetic GHSR C-terminus (from UniProt Q92847) (domain or fragment)”, the binding entry is “binds”.
